Taken from: PubChem BioAssay AID1259254 (NCATS, 2017)

- Assay: 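Finding genes that stop cells copying their DNA twice in one cycle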 (primary screen)
- Cells: human HCT116 colorectal cancer cells
- Reagents: single siRNA against human genes
- Time to read-out: 3 days
- Read-out: 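Imaged Hoechst DNA stain sorts each cell into a cycle phase by DNA amount; per plate, G2 fraction set to 0% for non-targeting and 100% for GMNN siRNA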
- Reading the numbers: G2 robust z-score and G2 cells, % of GMNN control: higher = more G2 cells, more excess DNA replication
- Active means: 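Active siRNAs have a G2 robust z of 5 or more median absolute deviations over the median, which in these data means about 38% or higher of GMNN control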
The deposit covers about 59,000 reagents; this is a random part of them. Over the whole deposit, about 1,550 (2.6%) are marked active. 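G2 share is only a proxy for re-replication; each gene was hit by three separate siRNAs, and active genes were retested.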 Reagents against one gene are numbered here. Not all columns of the deposit are shown. Not stated in the record: the amount of reagent.

With knock-down of CMTM5 #1, the screen gave G2 robust z-score 0.336; G2 cells, % of GMNN control 5.33; inactive.
CMTM5 #2 showed G2 robust z-score 0.829; G2 cells, % of GMNN control 8.8; inactive.
With knock-down of CMTM5 #3, the record shows G2 robust z-score -0.839; G2 cells, % of GMNN control -2.93; inactive.
Silencing of ANKRD53 #1 gave: G2 robust z-score -0.801; G2 cells, % of GMNN control -2.66; inactive.
Silencing of ANKRD53 #2 resulted in: G2 robust z-score 3.67; G2 cells, % of GMNN control 28.8; inactive.
ANKRD53 #3 scored G2 robust z-score 1.71; G2 cells, % of GMNN control 15; inactive.
Depletion of SCLT1 #1 came out at: G2 robust z-score -0.143; G2 cells, % of GMNN control 1.96; inactive.
Knock-down of SCLT1 #2 gave: G2 robust z-score -0.446; G2 cells, % of GMNN control -0.168; inactive.
For SCLT1 #3, the entry reads G2 robust z-score 1.1; G2 cells, % of GMNN control 10.7; inactive.

Copied from the list.
Result for ANKRD53 #1 in “G2 robust z-score”: -0.801
Entry for CMTM5 #2 under “activity call”: inactive

Continued.
Against RPS28P3 #1, the entry reads G2 robust z-score 0.0221; G2 cells, % of GMNN control 3.12; inactive.
RPS28P3 #2 gave G2 robust z-score 0.146; G2 cells, % of GMNN control 4; inactive.
With knock-down of RPS28P3 #3 the results were G2 robust z-score -0.875; G2 cells, % of GMNN control -3.19; inactive.
Depletion of CCDC18 #1 came out at: G2 robust z-score -0.0752; G2 cells, % of GMNN control 2.44; inactive.
Depletion of CCDC18 #2 resulted in: G2 robust z-score -0.583; G2 cells, % of GMNN control -1.14; inactive.
CCDC18 #3 scored G2 robust z-score 0.0353; G2 cells, % of GMNN control 3.22; inactive.
With knock-down of KRTAP19-8 #1 the results were G2 robust z-score -0.225; G2 cells, % of GMNN control 1.38; inactive.
After knock-down of KRTAP19-8 #2, the record shows G2 robust z-score -0.666; G2 cells, % of GMNN control -1.72; inactive.
KRTAP19-8 #3 showed G2 robust z-score 0.4; G2 cells, % of GMNN control 5.78; inactive.
